Results: patent publication US12582605B2, “Extended release formulations of cannabinoids” (Glatt GmbH, priority 2018, dated 2026)
Some entries share one result that the patent states for a list of compounds.

Test: Dissolution test, release of probucol (USP Type II paddle, purified water)
Type: physicochemical
Conditions: by / within 15 minutes
Procedure: (§1) A dissolution test was conducted on the compositions using purified water, USP, as the dissolution medium in a dissolution volume of 900 ml. A USP Type II paddle apparatus was used to mix the dissolution medium at a paddle speed of 75 rpm. The bath temperature was 37° C., and a 10-μm porous filter was used to sample aliquots.
as §1, with “Example Compositions D-H” for “the compositions”

Tween® 80
drug release (probucol): over 80 % w/w
